# Reference: publication PMC4447969
# These are yes or no findings as the source states them, for the method shown. In cells and extracts the contact can be indirect. Some binding calls cover weakened binding; strength is not graded here. Sequences can lack the tags named with a protein.
# T1: GST-Pdcd4-WT (UniProt Q53EL6)
# T1 sequence: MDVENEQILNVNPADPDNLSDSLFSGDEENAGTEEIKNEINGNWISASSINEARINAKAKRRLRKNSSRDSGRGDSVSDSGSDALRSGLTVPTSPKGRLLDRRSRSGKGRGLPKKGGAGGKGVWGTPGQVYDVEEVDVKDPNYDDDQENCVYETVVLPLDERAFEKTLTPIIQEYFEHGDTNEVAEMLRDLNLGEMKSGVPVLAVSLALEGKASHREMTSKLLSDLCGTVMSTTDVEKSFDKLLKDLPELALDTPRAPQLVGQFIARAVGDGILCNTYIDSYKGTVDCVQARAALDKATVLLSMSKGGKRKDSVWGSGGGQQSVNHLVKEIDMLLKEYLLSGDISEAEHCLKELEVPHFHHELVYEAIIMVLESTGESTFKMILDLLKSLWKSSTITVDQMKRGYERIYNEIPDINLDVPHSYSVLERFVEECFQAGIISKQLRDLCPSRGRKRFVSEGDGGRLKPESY
# Molecular target: T1, GST-Pdcd4-WT
# Experiment: pull-down; lysate (1 mg, RIPA buffer) of HEK293T cells transfected with IBtkα-FLAG or mutants incubated 1 h at 4 °C with GST or GST-Pdcd4 proteins, then glutathione-Sepharose beads 1 h at 4 °C, three washes with RIPA buffer, Western blot with anti-FLAG; only the target purified
row,Binder,binding
1,"IBtkαΔN-FLAG (aa 307–1352) (domain or fragment, UniProt Q9P2D0 307-1352) MGLNGGQLGCLLDPNGEKCVTAPRQVSALHHKDIALSLVAASDGATVCVTTRGDIYLLADYQCKKMASKQLNLKKVLVSGGHMEYKVDPEHLKENGGQKICILAMDGAGRVFCWRSVNSSLKQCRWAYPRQVFISDIALNRNEILFVTQDGEGFRGRWFEEKRKSSEKKEILSNLHNSSSDVSYVSDINSVYERIRLEKLTFAHRAVSVSTDPSGCNFAILQSDPKTSLYEIPAVSSSSFFEEFGKLLREADEMDSIHDVTFQVGNRLFPAHKYILAVHSDFFQKLFLSDGNTSEFTDIYQKDEDSAGCHLFVVEKVHPDMFEYLLQFIYTDTCDFLTHGFKPRIHLNKNPEEYQGTLNSHLNKVNFHEDDNQKSAFEVYKSNQAQTVSERQKSKPKSCKKGKNIREDDPVRMLQTVAKKFDFSNLSSRLDGVRFENEKINVIAKNTGNKLKLSQKKCSFLCDVTMKSVDGKEFPCHKCVLCARLEYFHSMLSSSWIEASSCAALEMPIHSDILKVILDYLYTDEAVVIKESQNVDFICSVLVVADQLLITRLKEICEVALTEKLTLKNAAMLLEFAAMYSAKQLKLSCLQFIGLNMAALLEARSLDVLSDGVLKDLSEFYRKMIPAMDRRVITPYQDGPDISYLEVEDGDIFLKEEINMEQNHSETMFKKAKTKAKKKPRKRSDSSGGYNLSDIIQSPSSTGLLKSGKTNSVESLPELLTSDSEGSYAGVGSPRDLQSPDFTTGFHSDKIEAKVKPYVNGTSPVYSREDLKPWEKSPILKISAPQPIPSNRIDTTSSASWVAGSFSPVSPPVVDLRTIMEIEESRQKCGATPKSHLGKTVSHGVKLSQKQRKMIALTTKENNSGMNSMETVLFTPSKAPKPVNAWASSLHSVSSKSFRDFLLEEKKSVTSHSSGDHVKKVSFKGIENSQAPKIVRCSTHGTPGPEGNHISDLPLLDSPNPWLSSSVTAPSMVAPVTFASIVEEELQQEAALIRSREKPLALIQIEEHAIQDLLVFYEAFGNPEEFVIVERTPQGPLAVPMWNKHG",binds
2,"IBtkαΔBTB-FLAG (deletion of aa 564–836) (protein, UniProt Q9P2D0) MSSPMPDCTSKCRSLKHALDVLSVVTKGSENQIKAFLSSHCYNAATIKDVFGRNALHLVSSCGKKGVLDWLIQKGVDLLVKDKESGWTALHRSIFYGHIDCVWSLLKHGVSLYIQDKEGLSALDLVMKDRPTHVVFKNTDPTDVYTWGDNTNFTLGHGSQNSKHHPELVDLFSRSGIYIKQVVLCKFHSVFLSQKGQVYTCGHGPGGRLGHGDEQTCLVPRLVEGLNGHNCSQVAAAKDHTVVLTEDGCVYTFGLNIFHQLGIIPPPSSCNVPRQIQAKYLKGRTIIGVAAGRFHTVLWTREAVYTMGLNGGQLGCLLDPNGEKCVTAPRQVSALHHKDIALSLVAASDGATVCVTTRGDIYLLADYQCKKMASKQLNLKKVLVSGGHMEYKVDPEHLKENGGQKICILAMDGAGRVFCWRSVNSSLKQCRWAYPRQVFISDIALNRNEILFVTQDGEGFRGRWFEEKRKSSEKKEILSNLHNSSSDVSYVSDINSVYERIRLEKLTFAHRAVSVSTDPSGCNFAILQSDPKTSLYEIPAVSSSSFFEEFGKLLREADEMDSIESQNVDFICSVLVVADQLLITRLKEICEVALTEKLTLKNAAMLLEFAAMYSAKQLKLSCLQFIGLNMAALLEARSLDVLSDGVLKDLSEFYRKMIPAMDRRVITPYQDGPDISYLEVEDGDIFLKEEINMEQNHSETMFKKAKTKAKKKPRKRSDSSGGYNLSDIIQSPSSTGLLKSGKTNSVESLPELLTSDSEGSYAGVGSPRDLQSPDFTTGFHSDKIEAKVKPYVNGTSPVYSREDLKPWEKSPILKISAPQPIPSNRIDTTSSASWVAGSFSPVSPPVVDLRTIMEIEESRQKCGATPKSHLGKTVSHGVKLSQKQRKMIALTTKENNSGMNSMETVLFTPSKAPKPVNAWASSLHSVSSKSFRDFLLEEKKSVTSHSSGDHVKKVSFKGIENSQAPKIVRCSTHGTPGPEGNHISDLPLLDSPNPWLSSSVTAPSMVAPVTFASIVEEELQQEAALIRSREKPLALIQIEEHAIQDLLVFYEAFGNPEEFVIVERTPQGPLAVPMWNKHG",binds

# The remaining lines, values ahead:
row,binding,Binder
1,no binding,"IBtkαΔC-FLAG (aa 1–890) (domain or fragment, UniProt Q9P2D0 1-890) MSSPMPDCTSKCRSLKHALDVLSVVTKGSENQIKAFLSSHCYNAATIKDVFGRNALHLVSSCGKKGVLDWLIQKGVDLLVKDKESGWTALHRSIFYGHIDCVWSLLKHGVSLYIQDKEGLSALDLVMKDRPTHVVFKNTDPTDVYTWGDNTNFTLGHGSQNSKHHPELVDLFSRSGIYIKQVVLCKFHSVFLSQKGQVYTCGHGPGGRLGHGDEQTCLVPRLVEGLNGHNCSQVAAAKDHTVVLTEDGCVYTFGLNIFHQLGIIPPPSSCNVPRQIQAKYLKGRTIIGVAAGRFHTVLWTREAVYTMGLNGGQLGCLLDPNGEKCVTAPRQVSALHHKDIALSLVAASDGATVCVTTRGDIYLLADYQCKKMASKQLNLKKVLVSGGHMEYKVDPEHLKENGGQKICILAMDGAGRVFCWRSVNSSLKQCRWAYPRQVFISDIALNRNEILFVTQDGEGFRGRWFEEKRKSSEKKEILSNLHNSSSDVSYVSDINSVYERIRLEKLTFAHRAVSVSTDPSGCNFAILQSDPKTSLYEIPAVSSSSFFEEFGKLLREADEMDSIHDVTFQVGNRLFPAHKYILAVHSDFFQKLFLSDGNTSEFTDIYQKDEDSAGCHLFVVEKVHPDMFEYLLQFIYTDTCDFLTHGFKPRIHLNKNPEEYQGTLNSHLNKVNFHEDDNQKSAFEVYKSNQAQTVSERQKSKPKSCKKGKNIREDDPVRMLQTVAKKFDFSNLSSRLDGVRFENEKINVIAKNTGNKLKLSQKKCSFLCDVTMKSVDGKEFPCHKCVLCARLEYFHSMLSSSWIEASSCAALEMPIHSDILKVILDYLYTDEAVVIKESQNVDFICSVLVVADQLLITRLKEICEVALTEKLTLKNAAMLLEFAAMYSAKQ"
2,binds,"IBtkα-FLAG (human inhibitor of Bruton's tyrosine kinase isoform α, aa 1–1352) (protein, UniProt Q9P2D0-1 1-1352) MSSPMPDCTSKCRSLKHALDVLSVVTKGSENQIKAFLSSHCYNAATIKDVFGRNALHLVSSCGKKGVLDWLIQKGVDLLVKDKESGWTALHRSIFYGHIDCVWSLLKHGVSLYIQDKEGLSALDLVMKDRPTHVVFKNTDPTDVYTWGDNTNFTLGHGSQNSKHHPELVDLFSRSGIYIKQVVLCKFHSVFLSQKGQVYTCGHGPGGRLGHGDEQTCLVPRLVEGLNGHNCSQVAAAKDHTVVLTEDGCVYTFGLNIFHQLGIIPPPSSCNVPRQIQAKYLKGRTIIGVAAGRFHTVLWTREAVYTMGLNGGQLGCLLDPNGEKCVTAPRQVSALHHKDIALSLVAASDGATVCVTTRGDIYLLADYQCKKMASKQLNLKKVLVSGGHMEYKVDPEHLKENGGQKICILAMDGAGRVFCWRSVNSSLKQCRWAYPRQVFISDIALNRNEILFVTQDGEGFRGRWFEEKRKSSEKKEILSNLHNSSSDVSYVSDINSVYERIRLEKLTFAHRAVSVSTDPSGCNFAILQSDPKTSLYEIPAVSSSSFFEEFGKLLREADEMDSIHDVTFQVGNRLFPAHKYILAVHSDFFQKLFLSDGNTSEFTDIYQKDEDSAGCHLFVVEKVHPDMFEYLLQFIYTDTCDFLTHGFKPRIHLNKNPEEYQGTLNSHLNKVNFHEDDNQKSAFEVYKSNQAQTVSERQKSKPKSCKKGKNIREDDPVRMLQTVAKKFDFSNLSSRLDGVRFENEKINVIAKNTGNKLKLSQKKCSFLCDVTMKSVDGKEFPCHKCVLCARLEYFHSMLSSSWIEASSCAALEMPIHSDILKVILDYLYTDEAVVIKESQNVDFICSVLVVADQLLITRLKEICEVALTEKLTLKNAAMLLEFAAMYSAKQLKLSCLQFIGLNMAALLEARSLDVLSDGVLKDLSEFYRKMIPAMDRRVITPYQDGPDISYLEVEDGDIFLKEEINMEQNHSETMFKKAKTKAKKKPRKRSDSSGGYNLSDIIQSPSSTGLLKSGKTNSVESLPELLTSDSEGSYAGVGSPRDLQSPDFTTGFHSDKIEAKVKPYVNGTSPVYSREDLKPWEKSPILKISAPQPIPSNRIDTTSSASWVAGSFSPVSPPVVDLRTIMEIEESRQKCGATPKSHLGKTVSHGVKLSQKQRKMIALTTKENNSGMNSMETVLFTPSKAPKPVNAWASSLHSVSSKSFRDFLLEEKKSVTSHSSGDHVKKVSFKGIENSQAPKIVRCSTHGTPGPEGNHISDLPLLDSPNPWLSSSVTAPSMVAPVTFASIVEEELQQEAALIRSREKPLALIQIEEHAIQDLLVFYEAFGNPEEFVIVERTPQGPLAVPMWNKHG"
